Data as given in patent US7718651B2, “Inhibitors of FtsZ and uses thereof” (priority 2002, dated 2010).

The chains behind the UniProt entries cited, without tags or fusion partners. Where a name states a change or a piece, a line headed by the entry shows the natural chain unless it says otherwise.
UniProt P9WN95: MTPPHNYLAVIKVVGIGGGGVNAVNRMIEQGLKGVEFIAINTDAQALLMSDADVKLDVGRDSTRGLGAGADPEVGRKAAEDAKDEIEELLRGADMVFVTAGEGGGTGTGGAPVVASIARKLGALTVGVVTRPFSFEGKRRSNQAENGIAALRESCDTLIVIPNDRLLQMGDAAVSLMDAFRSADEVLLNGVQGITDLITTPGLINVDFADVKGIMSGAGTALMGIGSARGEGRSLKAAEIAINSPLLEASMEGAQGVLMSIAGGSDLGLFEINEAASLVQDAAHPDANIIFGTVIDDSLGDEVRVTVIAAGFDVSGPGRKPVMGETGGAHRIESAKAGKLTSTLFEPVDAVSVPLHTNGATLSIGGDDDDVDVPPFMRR

Biological target: M. tuberculosis FtsZ (Mycobacterium tuberculosis, UniProt P9WN95)
Test: biochemical

In the case of `COc1cc2c(c(OC)c1OC)-c1ccc(OC)c(=O)cc1[C@@H](NC(C)=O)CC2` [Colchicine, reference compound], the IC50 is reported as 104 ± 2 µM.
